PubChem BioAssay AID1259308, NCATS – 2017

Purpose: 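Knock-downs that increase output of a recombinant reporter protein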 (primary screen)
Cell system: human HEK293 embryonic kidney cells stably expressing firefly luciferase (HEK-CMV-Luc2-Hygro)
Knock-down reagent: single siRNA against human genes, 0.8 pmol siRNA per well
Timing: 72 h
Detection: 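Luciferase light (ONE-Glo) measured on one replicate plate set and viability (CellTiter-Glo) on the other, scaled to a negative control siRNA, with robust z-scores and luciferase per cell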
Scale: total luciferase, z-score and total luciferase, % of control: higher = more reporter protein produced
Rule for the call: 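Active when the median/MAD z-score for overall luciferase is greater than 3; a gene was taken forward for validation with new siRNAs if at least two of its three siRNAs passed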
Meaning of the calls: active = raised luciferase; inactive = no rise
In all, the deposit lists about 59,000 reagents; this is an unselected part. Of all reagents, about 1,510 (2.6%) were called active. 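Calls use total luciferase alone and ignore viability, so some active siRNAs may act by altering cell number.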 Reagents against one gene are numbered here. Further read-outs or replicates are left out here.

| target | reagent no. | total luciferase, z-score | total luciferase, % of control | call |
| --- | --- | --- | --- | --- |
| DCAF15 | 1 | -1.09 | 60.2 | inactive |
| DCAF15 | 2 | 0.751 | 96.8 | inactive |
| DCAF15 | 3 | 1.05 | 103 | inactive |
| PALLD | 1 | -0.547 | 71 | inactive |
| PALLD | 2 | 0.503 | 91.9 | inactive |
| PALLD | 3 | 0.325 | 88.4 | inactive |
| GLRA1 | 1 | -0.957 | 62.9 | inactive |
| GLRA1 | 2 | -1.14 | 59.2 | inactive |
| GLRA1 | 3 | -0.578 | 70.4 | inactive |
| MOSPD2 | 1 | -0.407 | 73.8 | inactive |
| MOSPD2 | 2 | -0.472 | 72.5 | inactive |
| MOSPD2 | 3 | 0.287 | 87.6 | inactive |
| ADH1A | 1 | 0.479 | 91.4 | inactive |
| ADH1A | 2 | -0.0238 | 81.4 | inactive |
| ADH1A | 3 | 0.172 | 85.3 | inactive |
| ZFTRAF1 | 1 | 0.0239 | 82.4 | inactive |
| ZFTRAF1 | 2 | 0.7 | 95.8 | inactive |
| ZFTRAF1 | 3 | 1.87 | 119 | inactive |
| GABRB1 | 1 | 0.737 | 96.5 | inactive |
| GABRB1 | 2 | 0.288 | 87.6 | inactive |
| GABRB1 | 3 | -0.457 | 72.8 | inactive |
| DACH2 | 1 | 1.42 | 110 | inactive |
| DACH2 | 2 | 2.24 | 126 | inactive |
| DACH2 | 3 | 0.0528 | 82.9 | inactive |
| PID1 | 1 | -1.27 | 56.6 | inactive |
| PID1 | 2 | -0.145 | 79 | inactive |
| PID1 | 3 | 0.933 | 100 | inactive |
| RIGI | 1 | -0.321 | 75.5 | inactive |
| RIGI | 2 | -0.152 | 78.9 | inactive |
| RIGI | 3 | 0.135 | 84.6 | inactive |
| TRAM1L1 | 1 | 1.02 | 102 | inactive |
| TRAM1L1 | 2 | 2.08 | 123 | inactive |
| TRAM1L1 | 3 | 0.559 | 93 | inactive |
| KRTAP6-2 | 1 | 0.342 | 88.7 | inactive |
| KRTAP6-2 | 2 | -0.998 | 62 | inactive |
| KRTAP6-2 | 3 | -0.0966 | 80 | inactive |
| CCDC88A | 1 | 0.802 | 97.8 | inactive |
| CCDC88A | 2 | -0.138 | 79.1 | inactive |
| CCDC88A | 3 | 2.5 | 132 | inactive |
| CCDC88A | 4 | -0.114 | 79.6 | inactive |
| CCDC88A | 5 | -0.0787 | 80.3 | inactive |
| CCDC88A | 6 | 0.313 | 88.1 | inactive |
